Assay results published in patent US20060252034A1.
These are yes or no findings as the source states them, for the method shown. Some results given as binding are weak or reduced against the parent protein; the word gives no strength.

Biological target: T1, carboxyl terminus of EphB3 (UniProt P54753)
T1 sequence (looked up): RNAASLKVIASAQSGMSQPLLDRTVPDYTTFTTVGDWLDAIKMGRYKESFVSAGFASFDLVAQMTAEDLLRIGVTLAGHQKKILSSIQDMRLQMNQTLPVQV
Assay: yeast two hybrid screen, EphB3 carboxyl terminus as bait

binding: binds
B1: novel protein containing ring finger domaine (R1P4) (protein)
chain: MGTTSDEMVSVEQTSSSSLNPLCFECGQQHWTRENHLYNYQNEVDDDLVCHICLQPLLQPLDTPCGHTFCYKCLRNFLQEKDFCPLDRKRLHFKLCKKSSILVHKLLDKLLVLCPFSSVCKDVMQRCDLEAHLKNRCPGASHRRVALERRKTSRTQAEIENENGPTLLDPAGTLSPEADCLGTGAVPVERHLTSASLSTWSEEPGLDNPAFEESAGADTTQQPLSLPEGEITTIEIHRSNPYIQLGISIVGGNETPLINIVIQEVYRDGVIARDGRLLAGDQILQVNNYNISNVSHNYARAVLSQPCNTLHLTVLRERRFGNRAHNHSDSNSPREEIFQVALHKRDSGEQLGIKLVRRTDEPGVFILDLLEGGLAAQDGRLSSNDRVLAINGHDLKYGTPELAAQIIQASGERVNLTIARPGKPQPGNTIREAGNHSSSSQHHTPPPYYSRPSSHKDLTQCVTCQEKHITVKKEPHESLGMTVAGGRGSKSGELPIFVTSVPPHGCLARDGRIKRGDVLLNINGIDLTNLSHSEAVAMLKASAASPAVALKALEVQIVEEATQNAEEQPSTFSENEYDASWSPSWVMWLGLPSTLHSCHDVVLRRSYLGSWGFSIVGGYEENHTNQPFFIKTIVLGTPAYYDGRLKCGDMIVAVNGLSTVGMSHSALVPMLKEQRNKVTLTVICWPGSLV
